The supplement of paper PMC11348887
Where a name gives a salt, the structure may show the parent alone. Some of the results follow. Most values lie at the level of the controls, where differences are scatter. Where a SMILES comes first, the peptide text is derived from it. [ ]: non-standard residue; d: D form.

system: hPSC-derived cortical neurons (WA09); test: total neurite length per nucleus (MAP2) z-score; higher = more neurite growth; conditions: 5 µM; treatment: days 7-14 after plating, readout day 21

SMILES | total neurite length per nucleus (z-score)
CC(C)C[C@@H]1NC(=O)[C@@H](C(C)C)NC(=O)[C@@H]2CCCN2C(=O)[C@@H](CC(=O)O)NC(=O)[C@@H](Cc2c[nH]c3ccccc23)NC1=O (cyclo(L[dW][dD]P[dV])) | 0.573
Cc1cc(/C=C/C#N)cc(C)c1Nc1ccnc(Nc2ccc(C#N)cc2)n1 [Rilpivirine] | 1.45
COc1cc(C(=O)NC2CCCNC2)cc(OC)c1OC (centres undefined) [Troxipide] | 0.551
CN1CCN(C(c2ccccc2)c2ccccc2)CC1 [Cyclizine 2HCl] | -0.921
NCCOCCOCCNC(=O)Cc1ccc(Nc2nc(NCc3ccc(F)cc3)nc(NCC3CCCCC3)n2)cc1 [AP-III-a4 (ENOblock)] | -2.91
CO[C@H]1/C=C/O[C@@]2(C)Oc3c(C)c(O)c4c(c3C2=O)C2=NC3(CCN(CC(C)C)CC3)NC2=C(NC(=O)/C(C)=C\C=C\[C@H](C)[C@H](O)[C@@H](C)[C@@H](O)[C@@H](C)[C@H](OC(C)=O)[C@@H]1C)C4=O [Rifabutin] | 1.22
O=C(Nc1cccc(Cl)c1)c1ccccn1 | -0.261
O=C(NCCO[N+](=O)[O-])c1cccnc1 [Nicorandil] | -0.302
O=C(O)P(=O)(O)O [Foscarnet Sodium] | 0.801
CN(C)CCOc1ccc(-c2nc(-c3ccncc3)c(-c3ccc4c(c3)CC/C4=N\O)[nH]2)cc1 | -5.85
CCNC(=O)[C@H]1O[C@@H](n2cnc3c(N)nc(NCCc4ccc(CCC(=O)O)cc4)nc32)[C@H](O)[C@@H]1O | -0.0349
C/C(=C\c1ccc(C(=O)O)cc1)c1ccc2c(c1)C(C)(C)CCC2(C)C [TTNPB (Arotinoid Acid)] | -0.393
C=C[C@@]1(C)CC(=O)[C@]2(O)[C@@]3(C)[C@@H](O)CCC(C)(C)[C@@H]3[C@H](O)[C@H](OC(C)=O)[C@@]2(C)O1 [Forskolin] | 2.27
Cc1cc2c(F)c(Oc3ncnn4cc(OC[C@@H](C)O)c(C)c34)ccc2[nH]1 | 0.53
Cc1cc(C)nc(SCC(=O)Nc2ncc(Cc3cccc4ccccc34)s2)n1 | 0.516
CCOC(=O)n1ccn(C)c1=S [Carbimazole] | 0.185
COc1nccc(-c2c(-c3ccc(F)cc3)ncn2C2CCC(O)CC2)n1 (centres undefined) | 2.65

SMILES | total neurite length per nucleus (z-score)
Nc1nc(O)c2ncn(CCC(CO)CO)c2n1 [Penciclovir] | 0.39
CCCCCCCCCCCCCCCCn1cc[n+](Cc2ccccc2)c1C | -4.76
Cc1cc(=O)oc2cc(O)ccc12 [4-Methylumbelliferone (4-MU)] | -0.882
N[C@@H](Cc1cc(I)c(Oc2cc(I)c(O)c(I)c2)c(I)c1)C(=O)O [L-Thyroxine] | -0.309
O=C(NCc1ccc(Oc2ccccc2)cc1)c1nc(-c2cc(Br)c(O)c(Br)c2)no1 | 1.31
Nc1ccc(C(=O)O)cc1 [4-Aminobenzoic acid] | 0.361
CN1CCC(=C2c3ccccc3CC(=O)c3sccc32)CC1 [Ketotifen Fumarate] | 0.00877
N[C@@H]1CN(c2c(F)cc3c(=O)c(C(=O)O)cn([C@@H]4C[C@@H]4F)c3c2Cl)CC12CC2 [Sitafloxacin Hydrate] | -0.0301
C#Cc1cccc(Nc2ncnc3cc(OC)c(OCCCCCCC(=O)NO)cc23)c1 | -3.14
CN1CCCC(n2nc(Cc3ccc(Cl)cc3)c3ccccc3c2=O)CC1 (centres undefined) [Azelastine HCl] | -0.294
CCS(=O)(=O)N1CC(CC#N)(n2cc(-c3ncnc4[nH]ccc34)cn2)C1 | -0.0855
CC[C@H](CO)Nc1nc(NCc2ccccc2)c2ncn(C(C)C)c2n1 [Roscovitine (Seliciclib_CYC202)] | 0.576
CCN(CC)Cc1ccc2cc(COC(=O)Nc3ccc(C(=O)NO)cc3)ccc2c1 [Givinostat (ITF2357)] | -5.79
CC(C)(C)OC(=O)N[C@H]1CCCCC/C=C\[C@@H]2C[C@@]2(C(=O)NS(=O)(=O)C2CC2)NC(=O)[C@@H]2C[C@@H](OC(=O)N3Cc4cccc(F)c4C3)CN2C1=O [Danoprevir (ITMN-191)] | 0.247
COC1=CC(c2cc3ccccc3[nH]2)=N/C1=C\c1[nH]c(C)cc1C [Obatoclax Mesylate (GX15-070)] | -2.71
C=C1C(=O)O[C@H]2[C@H]1CC/C(C)=C/CC[C@@]1(C)O[C@@H]21 [(-)-Parthenolide] | -0.87
Cn1c(Nc2ccc(C(F)(F)F)cc2)nc2cc(Oc3ccnc(-c4ncc(C(F)(F)F)[nH]4)c3)ccc21 | -0.384
